Patent US12421279B2 (priority 2016, dated 2025)

Assay: general procedure: Fmoc solid-phase peptide synthesis; rink amide resin (100-200 mesh, 0.53 meq/g); DIC/OxymaPure
Settings: whole synthesis, overall

Substance: (3S,6S,14S,17S,20S,24S,25aS)-3-((1H-indol-3-yl)methyl)-14-amino-17-(2-amino-2-oxoethyl)-20-((S)-sec-butyl)-1,4,12,15,18,21-hexaoxo-24-(4-(4-(thiophen-2-yl)phenyl)-1H-1,2,3-triazol-1-yl)tetracosahydro-1H-pyrrolo[2,1-f][1,4, 7,10,13,18]hexaazacyclotricosine-6-carboxamide
- isolated yield: 55%
